Measured values published in PubChem BioAssay AID2685 (National Center for Advancing Translational Sciences (NCATS), 2010).
Some of the results follow. The main result of the screen is listed elsewhere. These columns were measured beside it and carry no call. Most of these compounds were active or inconclusive in the main read-out, so they are no random draw. Words in brackets tell the shape of the fitted curve; partial curves, single points and poor fits give uncertain potencies.

Assay: qHTS Assay for Lipid Storage Modulators in Drosophila S3 Cells;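 on cell number change: cells counted by Cell Tracker Red CMTPX staining in the red channel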
Conditions: BODIPY lipid droplet fluorescence, 18-24 h; for cell number change: measured here: cell count max response, cells fed with added oleic acid
How it was run: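 Drosophila S3 cells got compounds at several concentrations plus oleic acid (400 uM solution). Laser-scanning cytometry with 488 nm excitation read lipid droplets at 500-530 nm and cells at 575-640 nm. Percent activity was relative to 20 uM Triacsin C.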

[1] = measured here: cell number channel AC50, cells fed with added oleic acid
[2] = measured here: lipid fluorescence (Fed channel) AC50, cells fed with added oleic acid

SMILES	cell number change [%]	AC50 [1]	AC50 [2]
CC(/C=C/c1ccccc1)=N\Nc1nc(C)cc(C)n1	35.4	0.82 µM [rising, full curve, poor fit]	0.731 µM [rising, full curve]
COc1ccc([C@]23Cc4cc(OC)c(OC)cc4C(O2)c2c(c4ccccc4oc2=O)O3)cc1	2.33	–	–
O=C1CCCN1CN(C(=O)c1ccccc1)c1ccccc1	-15.4	–	–
COc1ccc(NC(=S)N2CCC(c3ccccc3)C2)cc1 (stereo not given)	39.8	–	11.6 µM [rising, partial curve]
Cc1ccc2oc(=O)n(CC(=O)OC(C)C)c2c1	2.46	2.31 µM [rising, partial curve]	–
CC(C)c1ccc(Nc2nnc(SCC(=O)Nc3ncc(S(=O)(=O)c4ccc([N+](=O)[O-])cc4)s3)s2)cc1	50.6	0.184 µM [rising, full curve]	–
COc1ccc(NC(=O)c2c(Nc3ccccc3)sc(C(=O)c3ccc(F)cc3)c2N)cc1	-40.7	16.4 µM [falling, single point]	20.6 µM [falling, single point]
O=C(CSc1cccc(C(F)(F)F)c1)NC(=O)NCc1ccco1	-12.8	–	0.461 µM [rising, single point]
O=C(CNC(=O)c1ccc(Br)o1)Nc1ccccc1	7.72	–	–
COCCn1c(SCC(=O)Nc2ccccc2OC)nc2ccccc21	42.2	29.1 µM [rising, single point]	5.8 µM [rising, partial curve]
O=C(c1cccc(S(=O)(=O)N2CCCC2)c1)N1CCN(c2ccccc2F)CC1	14.2	–	–
O=C1CSC(c2cn(-c3ccccc3)nc2-c2cccs2)N1Cc1ccccc1 (stereo not given)	109	23.1 µM [rising, single point]	20.6 µM [rising, partial curve]
O=C(Nc1cccc2c1C(=O)NC2=O)c1cccnc1Cl	26.9	–	–
Cc1ccc(S(=O)(=O)CCC(=O)OCC(=O)NC(=O)c2ccccc2)cc1	-23	–	29.1 µM [falling, single point]
COCCNC(=O)C(c1ccc(C)cc1)N(Cc1ccco1)C(=O)CCC(=O)Nc1ccccn1 (stereo not given)	22.7	–	6.51 µM [rising, single point]
COc1ccc(C[C@H]2CN3C(=NC[C@@H]3Cc3ccccc3)N2CCNC(=O)c2ccc(C)c(Br)c2)cc1	-66.3	29.1 µM [falling, single point]	–
N#CCC(=O)N/N=C/c1ccc(N2N=C(c3ccccc3)CC2c2ccccc2)cc1 (stereo not given)	263	13 µM [rising, partial curve]	14.6 µM [falling, partial curve]
O=C(COC(=O)c1cccc(O)c1)NC(=O)Cc1ccccc1	-10.3	–	0.259 µM [falling, full curve, poor fit]
Cc1nn(-c2ccccc2)c(C)c1C(=O)NCCc1ccccc1	3.95	–	–
NC(=O)[C@@H]1CCNc2c(I)cc([N+](=O)[O-])cc2C(=O)N[C@@H](CO)C(=O)N[C@@H](Cc2ccc(O)cc2)C(=O)N1	4.87	–	0.92 µM [rising, full curve, poor fit]
CC1=NN2C(=N)/C(=C\c3cc(C)n(-c4ccccc4)c3C)C(=O)N=C2S1	-43	10.3 µM [falling, partial curve, poor fit]	29.1 µM [falling, single point]

An excerpt from above in order of count of non-hydrogen atoms, rising:
SMILES	cell number change [%]	AC50 [1]	AC50 [2]
Cc1nn(-c2ccccc2)c(C)c1C(=O)NCCc1ccccc1	3.95	–	–
Cc1ccc(S(=O)(=O)CCC(=O)OCC(=O)NC(=O)c2ccccc2)cc1	-23	–	29.1 µM [falling, single point]
N#CCC(=O)N/N=C/c1ccc(N2N=C(c3ccccc3)CC2c2ccccc2)cc1 (stereo not given)	263	13 µM [rising, partial curve]	14.6 µM [falling, partial curve]

(listing goes on)

SMILES	cell number change [%]	AC50 [1]	AC50 [2]
CCn1c(SCC(=O)Nc2ccc3c(c2)OCO3)nc2c(c1=O)SC(C)C2 (stereo not given)	12.2	0.517 µM [rising, full curve, poor fit]	4.11 µM [rising, partial curve]
CCc1cccc(NC(=S)N(CCOC)C(C)c2ccco2)c1 (stereo not given)	19	–	32.6 µM [rising, partial curve, poor fit]
Cc1c(Cl)cccc1N(CC(=O)NC1CCCCC1)S(C)(=O)=O	-4.14	–	14.6 µM [falling, partial curve, poor fit]
COc1ccc(-c2cc(-c3ccc(Cl)cc3)n[nH]2)c(O)c1	-20.1	–	10.3 µM [falling, partial curve]
N#C/C(=C/c1ccc(N2CCCCCC2)o1)c1cccc(F)c1	-33.1	–	29.1 µM [falling, single point]
COC(=O)c1ccc(CNC(=O)COC(=O)CCC2CCCC2)cc1	0.264	2.91 µM [falling, partial curve]	2.06 µM [rising, partial curve]
Cc1ccc(O)c(-c2cc3ccccc3[nH]2)c1	-123	–	23.1 µM [falling, single point]
COc1ccccc1CNC(=O)CCS(=O)(=O)c1cccc2nonc12	-0.785	–	–
COc1ccccc1NS(=O)(=O)c1cc(C(=O)N2CCN(C/C=C/c3ccccc3)CC2)ccc1C	21.1	–	–
Cc1ccccc1CC(=O)N1CCN(S(=O)(=O)c2cccs2)CC1	39	–	11.6 µM [rising, partial curve]
CC(=O)Nc1ccc(NC(=O)c2c(-c3ccccc3)noc2C)cn1	30.6	29.1 µM [rising, single point]	–
COC(=O)c1c(C)[nH]c(C(=O)COC(=O)CCNS(=O)(=O)c2cccc(C(F)(F)F)c2)c1C	-2.89	–	–
Cc1ccc(C(C)NC(=O)Cc2cccs2)cc1C (stereo not given)	12.4	–	0.13 µM [falling, full curve, poor fit]
Cc1ccc(S(=O)(=O)NCCC(=O)OCC(=O)N(Cc2ccccc2)C(C)(C)C)cc1C	16.8	–	–
O=C(COc1nc2ccccc2nc1N1CCOCC1)NC1CCCCC1	–	0.517 µM [rising, partial curve, poor fit]	–
Cc1ccc(NC(=O)Cc2ccccc2F)cc1S(=O)(=O)N1CCCCCC1	-0.112	–	–
Nc1c(C(=O)NCc2ccco2)c2nc3ccccc3nc2n1CCc1ccccc1	-15.2	1.3 µM [rising, partial curve]	1.64 µM [rising, partial curve]
O=Cc1c(NCc2ccccc2F)c2ccccc2[nH]c1=O	-7.42	–	–
O=S(=O)(NCc1cccnc1)c1cc(Cl)ccc1Cl	13.5	–	0.651 µM [falling, single point]
COc1ccc(N2C(=NC(=O)C3CCCO3)SC3CS(=O)(=O)CC32)cc1 (stereo not given)	-11.9	–	29.1 µM [falling, single point]
CCOC(=O)c1c(NC(=O)C2CCN(S(=O)(=O)c3cccs3)CC2)sc(C)c1C	-7.22	–	–

Structures from the list above containing a cyano group:
SMILES	cell number change [%]	AC50 [1]	AC50 [2]
N#CCC(=O)N/N=C/c1ccc(N2N=C(c3ccccc3)CC2c2ccccc2)cc1 (stereo not given)	263	13 µM [rising, partial curve]	14.6 µM [falling, partial curve]
N#C/C(=C/c1ccc(N2CCCCCC2)o1)c1cccc(F)c1	-33.1	–	29.1 µM [falling, single point]

The listing continues:

SMILES	cell number change [%]	AC50 [1]	AC50 [2]
CC1CC(C)(C)Nc2ccc(N=O)cc21 (stereo not given)	-92.3	16.4 µM [falling, partial curve]	20.6 µM [falling, partial curve]
COc1ccc(CSc2nc(C)[nH]c2[N+](=O)[O-])cc1[N+](=O)[O-]	–	–	10.3 µM [rising, partial curve]
COc1ccccc1NC(=O)CSc1nnc(-c2ccc(C)cc2)o1	32.6	8.2 µM [rising, partial curve, poor fit]	–
CC1(C)CN(c2ccc(N3CC(C)(C)C3=O)cc2)C1=O	28.5	–	6.51 µM [falling, single point]
Cc1cccc(N2CC(c3nc4ccccc4[nH]3)CC2=O)c1 (stereo not given)	21.7	–	6.51 µM [rising, single point]
CCC(C)(C)NC(=O)C(c1ccc(O)cc1)N(Cc1ccco1)C(=O)CCC(=O)Nc1ccccn1 (stereo not given)	-1.68	–	0.206 µM [rising, single point]
CSCCC(NS(=O)(=O)c1ccc(C)cc1)C(=O)NCCc1c[nH]c2ccccc12 (stereo not given)	23.5	–	4.61 µM [rising, partial curve]
Cc1c(C)n(-c2ccccc2)c2ncnc(NCCN(C)C)c12	-4.33	–	0.058 µM [falling, full curve, poor fit]
CCNc1nc(NCC)n2c(SCC(=O)Nc3c(C)cccc3C)nnc2n1	8.33	–	–
Cc1ccc(CNC(=O)c2ccc(N3CCC4(CC3)CC(c3ccccc3)=NO4)c(NC(=O)c3ccc(Cl)c([N+](=O)[O-])c3)c2)cc1	-19.6	–	–
O=C(C1CCC1)N1CCN(c2ccc(Cl)cc2)CC1	-7.41	–	–
CC(=O)c1ccc(OCc2cc(C(=O)NCCc3ccc(Cl)cc3)no2)cc1	46.2	5.17 µM [rising, partial curve]	–
CCCN(CCO)Cc1ccc2ccccc2c1	17.1	–	4.61 µM [falling, full curve, poor fit]
CN(Cc1ccc(Cl)s1)C(=O)CCl	–	3.26 µM [falling, partial curve]	4.61 µM [falling, partial curve]
Cc1ccc(NC(=O)COC(=O)c2ccc3c(=O)n4c(nc3c2)CCC4)c(Br)c1	-55.4	32.6 µM [falling, partial curve, poor fit]	6.51 µM [rising, single point]
Cc1ccc2[nH]c(=O)c(CN(CCCN3CCOCC3)C(=O)Nc3cccc(Cl)c3)cc2c1	3.05	–	–
CCCCOc1ccc(C(=O)Nc2cccc(C)n2)cc1	21.9	–	3.26 µM [rising, single point]
Cc1ccc(OCc2nnc(SCC(=O)Nc3ncc(C)s3)o2)cc1	-4.01	–	1.3 µM [falling, full curve]
COc1ccc(C)c2sc(NC(=O)CCS(=O)(=O)c3ccccc3)nc12	–	–	29.1 µM [falling, single point]
CC(=O)Nc1ccc(S(=O)(=O)NCCC(=O)OCC(=O)c2ccc(Br)cc2)cc1	3.84	–	7.31 µM [falling, partial curve, poor fit]
